The values below come from article PMC5368057, “Structural, thermodynamic, and phosphatidylinositol 3‐phosphate binding properties of Phafin2” (Protein Science : A Publication of the Protein Society, 2017).

These are yes or no findings as the source states them, for the method shown.

The assay addresses Phafin2 (human) (UniProt Q9H8W4). In words: AUC; sedimentation velocity; Phafin2 10 uM in 8 mM Tris-HCl (pH 7.3), 50 mM NaCl; 20°C, 50,000 rpm, absorbance at 230 nm; both purified.

B1: Phafin2 (protein, UniProt Q9H8W4 1-249)
chain: GSMVDRLANSEANTRRISIVENCFGAAGQPLTIPGRVLIGEGVLTKLCRKKPKARQFFLFNDILVYGNIVIQKKKYNKQHIIPLENVTIDSIKDEGDLRNGWLIKTPTKSFAVYAATATEKSEWMNHINKCVTDLLSKSGKTPSNEHAAVWVPDSEATVCMRCQKAKFTPVNRRHHCRKCGFVVCGPCSEKRFLLPSQSSKPVRICDFCYDLLSAGDMATCQPARSDSYSQSLKSPLNDMSDDDDDDDSSD
B1: the binding entry is recorded as “no binding (tested: 10 μΜ)”.
